Reference: article doi:10.1101/2020.02.12.945477
Read-outs that look alike come from different tables or passages of the source. These are yes or no findings as the source states them, for the method shown. Binding seen in cells or lysates may run through a third protein. These calls come from enrichment with a bait or labelling near it, and not all partners need be listed. For part of these data: No binding means not detected with the bait.

How the values were obtained:
Test in all cases: affinity purification with mass spectrometry
[1] = target: PfNOT1.2 (P. falciparum (endogenous in strain T996)) (UniProt Q8ILS4)
[2] = target: PfNOT1.1 (P. falciparum (endogenous in strain T996)) (UniProt Q8IIW4)
[3] = target: PfNOT4 (P. falciparum (endogenous in strain T996)) (UniProt Q8I569)
[4] = target: PfNOT1.2 (P. falciparum (endogenous in strain T996)) (UniProt Q8ILS4); remark: listed apart in the source
[5] = target: PfCAF1 (P. falciparum (endogenous in strain T996)) (UniProt C0H4T9)
[6] = target: PfNOT1.1 (P. falciparum (endogenous in strain T996)) (UniProt Q8IIW4); remark: listed apart in the source
[7] = target: PfNOT4 (P. falciparum (endogenous in strain T996)) (UniProt Q8I569); remark: listed apart in the source

For “PAIP1 PF3D7_1107300 (from UniProt Q8IIS9)”, the binding [1] was “binds”.

For “polyadenylate-binding protein PABP PF3D7_1224300 (from UniProt Q8I5H4)”, the binding [1] was “binds”.

For “polyadenylate-binding protein PF3D7_1360900 (from UniProt C0H5J5)”, the binding [2] was “binds”.

With “acetyltransferase PF3D7_1323300 (from UniProt Q8IE83)” the binding [2] was “binds”.

In the case of “protein phospharase PP1 PF3D7_1414400 (from UniProt Q8ILV1 1-304)”, the binding [2] is reported as “binds”.

In the case of PfCAF1 (from UniProt C0H4T9 1-1774), the binding [1] is reported as “binds” and the binding [2] is reported as “binds”.

In the case of “EIF3G PF3D7_0815600 (from UniProt Q8IAZ3)”, the binding [1] is reported as “binds”.

PfNOT1.2 (from UniProt Q8ILS4 1-4466) was tested, and the binding [2] was “no binding” and the binding [3] was “no binding”.

With “chromodomain helicase DNA-binding protein 1 homolog PF3D7_1023900 (from UniProt Q8IJG6 1-3328)” the binding [2] was “binds”.

“ApiAP2 transcription factor PF3D7_1239200 (from UniProt Q8I531 1-2577)” was tested, and the binding [2] was “binds”.

PfNOT1.1 (from UniProt Q8IIW4 1-3371) was tested, and the binding [1] was “no binding” and the binding [3] was “no binding”.

B1: PfCAF40 (protein, UniProt Q8I427 1-652)
chain: MVINNDMVKGSNKMKNLNKNIFPVNPNNNVVSNINSSKLNQGGVCIAEDINMGSVNNTNDLNNSDEIINCGNMNKSEDINKPGDINNSDDVNNPDDINNKINVNGIHSPLNESLQNLDRNNMSVCNLGNVTTPVNNINNNINNNINCNNNNNNNNNNSSNSNSNSNSNSNPICINNNENNKYKNSNKCNDFHKDNTTSEQDQTKNDNNINNLSSGQENTINNEEEKKKVYQLVYDLCFSEKRENALLELSRKRETYHDIAPVLWNSFGTITTLLQEIVSIYPQLSPPLLTTSSSNRVCNSLALLQCVASHPETKQHFLNAHIPLFLYPFLNAESKNRPFEYLRLTSLGVIGALVKVDNPEVINFLLQTEIIPLCLRIMETGSELSKTVATFIVQKILIDELGLNYICATPERFYAVSTVLANMVNSLVENPSSRLLKHIVRCYLRLSENARALEALKYCLPEPLRHVHKTFLPCLKEDPFTKKWLLQLLYNINNDDENLTMKNTNFINHNTNQNTSNINNQTLNKISQNVYTNLNVPTALNEININIPKTDTHTNIHNINDNIENSSSQSFNNKINDTNLKCGKINNNKLNPDLTNNDINDNNINDNNNDNNDNNNINDNIMNDDNNNINGDSVNNNNMNDDSVNNNNMNDN
B1 was tested, and the binding [4] was “binds”, the binding [5] was “binds” and the binding [6] was “binds”. The binding [7] was “binds”.

B2: exported protein PF3D7_0501000 (protein, UniProt Q8I490 1-260)
chain: MMNKKSMQTKNFLSERNYGSIDQNVRTKNKRRLMKFQSKSKAKSFLFLLELMVFSLFIWILKSAKHNVSSKSIYNKNKFHNTFNRRDTRVLAEQEDQYIRNPNNSNYPDRDLDICNWDEPHNPEKNPCAIPQDDLSNEGIEIIDYVDKKEEEKLKNDLKIHFGKQHYALIKDIYKPIQSYANNFSKVVDHYVGSLKRINNAFNLDILRTVICTAFLIQPIVLLMKLHPELLVHIPINIIISMVVFKLMHKSLRNEQESNK
With B2 the binding [6] was “binds”.

B3: pyruvate kinase PF3D7_0626800 (protein, UniProt C6KTA4 1-511)
chain: MSSFKYKNSAAGASMQSAANITLRQILEPNNVNLRSKKTHIVCTLGPACKSVETLVKLIDAGMDICRFNFSHGSHEDHKEMFNNVLKAQELRPNCLLGMLLDTKGPEIRTGFLKNKEVHLKEGSKLKLVTDYEFLGDETCIACSYKKLPQSVKPGNIILIADGSVSCKVLETHEDHVITEVLNSAVIGERKNMNLPNVKVDLPIISEKDKNDILNFAIPMGCNFIAASFIQSADDVRLIRNLLGPRGRHIKIIPKIENIEGIIHFDKILAESDGIMIARGDLGMEISPEKVFLAQKLMISKCNLQGKPIITATQMLESMTKNPRPTRAEVTDVANAVLDGTDCVMLSGETAGGKFPVEAVTIMSKICLEAEACIDYKLLYQSLVNAIETPISVQEAVARSAVETAESIQASLIIALTETGYTARLIAKYKPSCTILALSASDSTVKCLNVHRGVTCIKVGSFQGTDIVIRNAIEIAKQRNMAKVGDSVIAIHGIKEEVSGGTNLMKVVQIE
In the case of B3, the binding [6] is reported as “binds”.

B4: ALBA1 PF3D7_0814200 (protein, UniProt Q8IAX8 1-248)
chain: MKKDREPIDEDEMRITSTGRMTNYVNYGAKILGDEDKKSIKIKATGNAIGKAVTLAEIIKRRFKGLHQITRCGSTVITDQYVSGQDNSEHVVQEKTVSFIEILLSREQLDMKDAGYQPPLDEKYVKEMTPEEIVNSRPFRRGGFRPRFYRGFRGGRGGFLRRGGYRGFGDRVYEPRSSFRGGRGSGYGGNFGRGGYRSGGGMGGGFRGGFRGGFRGGRDGGYRGGNRGGSRSGFRGGRGGFRGGRALS
With B4 the binding [4] was “binds”.
